Measurements taken from patent US20080131915A1.
No constants are given. Whether binding was seen depends on the method and setting. In cells and extracts the contact can be indirect. Some entries that bind do so weakly or less than the wild type.

By UniProt entry, the sequences of proteins in these tests, tags left out. Where a name states a change or a piece, a line headed by the entry shows the natural chain unless it says otherwise. Residues count along the entry.
UniProt Q99527: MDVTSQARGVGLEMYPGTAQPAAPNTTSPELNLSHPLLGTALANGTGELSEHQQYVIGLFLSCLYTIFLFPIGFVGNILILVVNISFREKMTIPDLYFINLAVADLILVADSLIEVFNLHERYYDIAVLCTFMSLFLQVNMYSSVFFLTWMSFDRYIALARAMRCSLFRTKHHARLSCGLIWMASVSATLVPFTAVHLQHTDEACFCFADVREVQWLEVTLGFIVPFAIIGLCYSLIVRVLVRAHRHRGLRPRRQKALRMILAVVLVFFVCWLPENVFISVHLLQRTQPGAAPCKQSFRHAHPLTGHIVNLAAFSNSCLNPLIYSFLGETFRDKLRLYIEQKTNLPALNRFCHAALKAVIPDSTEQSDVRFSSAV
UniProt P63092, residues 2-394: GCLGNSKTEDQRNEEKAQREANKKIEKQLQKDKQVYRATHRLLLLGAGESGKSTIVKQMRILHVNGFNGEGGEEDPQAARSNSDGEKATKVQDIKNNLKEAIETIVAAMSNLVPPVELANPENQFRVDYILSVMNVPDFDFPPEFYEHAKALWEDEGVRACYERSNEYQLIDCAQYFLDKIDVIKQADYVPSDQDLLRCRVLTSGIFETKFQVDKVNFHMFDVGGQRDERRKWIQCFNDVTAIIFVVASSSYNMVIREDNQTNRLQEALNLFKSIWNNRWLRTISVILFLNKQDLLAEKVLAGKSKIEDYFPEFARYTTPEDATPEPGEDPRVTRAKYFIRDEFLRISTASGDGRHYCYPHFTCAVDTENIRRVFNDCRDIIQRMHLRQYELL

How the values were obtained:
[1] = target: human GPR30 (endogenous) (human) (UniProt Q99527); assay: co-immunoprecipitation from SKBR3 fractions with Gαs antibody, GPR30 immunoblot
[2] = target: human GPR30 (endogenous) (human) (UniProt Q99527); assay: co-immunoprecipitation from SKBR3 fractions with Gαs antibody, GPR30 immunoblot; 17β-E2 treatment triggered uncoupling

binding [1]: binds
binding [2]: binds
Substance: Gαs subunit protein (from UniProt P63092 2-394)
